Reference: patent publication US6402037B1, “Two-photon upconverting dyes and applications” (The Research Foundation of State University of New York, priority 1995, dated 2002)
Values joined by “and” are separate entries in the source; they are usually repeats but may differ in a detail not shown here. Equal entries are not always repeated. Marks after values point to notes of the source that are not given here.

Legend:
[1] = Two-photon pumped cavity lasing of dye-doped matrices (1.06 μm pump); settings: for lasing peak: 1.06 μm pump; for lasing pulsewidth: 10 ns pump pulse
Experimental: Two-photon pumped cavity lasing experiments were conducted using a Q-switched Nd-YAG pulsed laser source having a wavelength of 1.06 μm, a pulsewidth of about 10 ns, a spectral width of about 1 cm^−1, an angular divergence of about 1.3 mrad, and a variable repetition rate of 1-10 Hz. A 1 cm-long quartz cuvette filled with dye1 solution in cyclopentanone (do≈8×10^−2 to 4×10^−2M) and a 7 mm-long, dye1 -doped poly(HEMA) rod (do,≈8×10^−3 M), prepared in accordance with Example 12, were used separately for two-photon pumped (“TPP”) lasing observation. The 1.06 μm-pump laser beam was focused on the center of the cuvette or sample rod, and a strong orange-red fluorescence emission was observed when the infrared pump intensity reached several MW/cm^2. Once the pump intensity further increased to a certain threshold level, simultaneous forward and backward highly directional superradiation could be observed from the solution or rod samples. To achieve cavity lasing, two parallel plane dielectrc-coating mirrors were employed to form a cavity. The pump beam, focused through a f-10 cm lens, was coupled into the cavity by normal incidence. The reflectivity was r=10% at 1.06 μm and r=99% at 600 nm for the front mirror (input coupler) and r=10% at 1.06 μm and r=50% at 600 nm for the rear mirror (output coupler). The total cavity length was 7˜8 cm, and the cuvette or sample rod was located at the center of the cavity. […] FIGS. 11A-11C show the emission spectra of the same 7 mm-long, dye1 -doped rod sample under the following different excitation conditions: 532 nm one-photon excited fluorescence emission (FIG. 11A), 1.06 μm two-photon excited fluorescence emission (FIG. 11B), and 1.06 μm pumped cavity lasing (FIG. 11C). Each spectrum was obtained using a grating -spectrograph in conjunction with an optical multi-channel analyzer (OMA-III) system. The difference between FIGS. 11A and 11B can be explained by a volume reabsorption effect of the emission. To obtain these two spectra, the excitation beam was incident on the rod end at a +45° angle, and the fluorescence was measured at a −45° angle. In the case of FIG. 11A, the emission was mainly from a shallow surface layer of the sample because of the very short penetration depth of the 532 nm pump radiation, and therefore, the reabsorption effect within the sample can be neglected. However, for the case of FIG. 11B, the incident infrared beam could pass through the whole rod length without obvious depletion, and, consequently, collected fluorescence signals of different spectral components were propagated within the sample for a considerable distance. […] Cavity lasing occurred at the central region of the two-photon absorption (“TPA”) induced fluorescence band, but the lasing bandwidth (˜8 nm) was much narrower than the ordinary one-photon excited fluorescence band width (˜60 nm) due to the lasing threshold requirement. In addition, a red-shift of the central lasing wavelength was observed as the pump energy increased. This shift may be caused by the local temperature change of the sample rod.
Compared to the smooth temporal profile of the 10 ns pump pulse, the lasing pulses manifested much shorter rise- and fall-times, i.e. ≦1.5 ns limited by the resolution of the detecting system. In addition, the lasing pulse duration (˜1.5 ns at a moderate pump level) was much less than the pump pulse duration.
The lasing output/pump input characteristic curve is given in FIG. 13 for the rod cavity lasing. Each data point was an average result over 10 laser pulses by using a gated integrator and boxcar averager system, and the solid line is the best fitted curve based on the square law that should be followed for a two-photon excitation process. The energy conversion efficiency from pump input to lasing output was estimated as η≈0.8% at input energy level of 1.3 mJ. However, at this pump level the measured one-pass two-photon absorption in the 7 mm-long rod was only about 23%. […]

[2] = Infrared detection: visible emission of dye-doped film exposed to 1.06 μm Nd-YAG laser
[3] = Optical characterization of the solution state (ethanol)
[4] = Two-photon pumped cavity lasing of APSS solution filled hollow fiber (800 nm pump)
Text: As a comparison, the absorption spectrum of 1 mm-path length pure solvent (DMSO) is also provided. There is a strong absorption band around 400 nm due to APSS dye, and the solution is transparent in the 570˜1100 nm spectral range. However, the two-photon energy of ˜800 nm IR radiation falls into the strong absorption band. Therefore, an effective TPA process is expected by ˜800 nm excitation. […] The same effect is expected with increased path length of the solution sample with a given concentration.
The input 800 nm pump IR laser beam was provided by a pulsed dye laser pumped with a Q-switched and frequency-doubled Nd: YAG laser source. The beam size, pulse duration, angular divergence, and repetition rate of the input pump laser radiation were ˜3 mm, ˜5 ns, ˜1 mrad, and 1-10 Hz, respectively. The pump beam was focused by a 4×-microscope objective into the input end of a 15-cm long hollow quartz fiber filled with APSS, prepared as described in Example 16, in DMSO (do=0.012 M). The internal diameter of the hollow fiber sample was 100 μm, and the two open ends of the fiber were immersed in two identical liquid coupling cells which were filled with the same dye solution. Each cell was equipped with an optical window. Two mirrors were adapted to form the optical cavity. The front cavity mirror (M1) was a plane dielectric coating mirror with a reflectivity of 40% at ˜565 nm and ˜1.06 μm. The optical path between the back mirror M2 and the output fiber end was 2 cm. The total optical path length of the cavity was ˜30 cm. Under the excitation of the input 800 nm pump beam, a strong TPA induced green fluorescence emission was seen from the hollow fiber. Once the input pump intensity increased to a threshold level, very intense backward cavity lasing was observed through a beam spitter (BS). […]
The spectral intensity distribution of two-photon pumped cavity lasing from the above system is shown in FIG. 16 (dashed curve) at a pump energy level of Eo=290 μJ. For comparison, the one photon (at 400 nm) induced fluorescence spectrum of the same dye solution with the same concentration is also shown in FIG. 16 (solid curve). The bandwidth of cavity lasing was much narrower than the bandwidth of corresponding one-photon induced fluorescence emission without using any intracavity dispersion element. […] Therefore, the blue-side and central range of the fluorescence band would be expected to be more difficult to lase.
The measured single-pulse waveform was recorded by using a fast photodiode detector in conjunction with a 350 MHz oscilloscope (Tektronix 2467 with C1001 video camera). […] At a pump level of ˜150 μJ, the measured one-pass two-photon absorption in the 15 cm-long dye solution filled hollow fiber sample was only about ˜25%. […]

[5] = Two-photon photobleaching data storage in APSS-containing HEMA block
[6] = 7 mm poly(HEMA) rod, input 1.3 mJ
[7] = cyclopentanone solution, 0.003 M

With `CCN(CCO)c1ccc(/C=C/c2cc[n+](C)cc2)cc1.c1ccc([B-](c2ccccc2)(c2ccccc2)c2ccccc2)cc1` [dye1, trans-4-[p-(N-ethyl-N-hydroxyethylamino)styryl]-N-methylpyridinium tetraphenyborate] the “lasing life time (pulses before pulse energy decreased to 10˜15% of initial)” value ([1]; 2 Hz, without cooling) was > 4×10^4 pulses, the “conversion efficiency from absorbed pump energy to lasing output” value ([1]; 7 mm poly(HEMA) rod, corrected) was 3.5% and the “energy conversion efficiency from pump input to lasing output η” value [1, 6] was “≈ 0.8%”. The one-pass two-photon absorption [1, 6] was “about 23%”, the lasing bandwidth ([1]; Vycor glass 0.0015M) was 8 nm and the lasing peak ([1]; Vycor glass 0.0015M) was 600 nm. For the same compound, the lasing pulsewidth ([1]; Vycor glass 0.0015M) was 2 ns, the lasing bandwidth [1, 7] was 14^b nm and the lasing peak [1, 7] was 623^b nm. For the same compound, the lasing pulsewidth [1, 7] was 1.5^b ns, the “two-photon pumped cavity lasing” value ([1]; dye-doped Vycor glass) was “observed” and the “lasing pulse rise- and fall-times” value ([1]; dye-doped polymer rod, limited by detector resolution) was no more than 1.5 ns. For the same compound, the “two-photon pumped cavity lasing” value ([1]; dye-doped sol gel glass) was “observed”, the lasing bandwidth ([1]; poly(HEMA) 0.008M) was “≈ 8 nm and 8 nm” and the lasing peak ([1]; poly(HEMA) 0.008M) was 597 nm. For the same compound, the lasing pulsewidth ([1]; poly(HEMA) 0.008M) was ~1.5 ns and 2 ns, the lasing bandwidth ([1]; sol-gel glass 0.0015 M) was 8 nm and the lasing peak ([1]; sol-gel glass 0.0015 M) was 590 nm. For the same compound, the lasing pulsewidth ([1]; sol-gel glass 0.0015 M) was 1.5 ns, the “emission intensity dependence on incident infrared laser beam intensity” value ([2]; 50 μm polyurethane film, 1.06 μm Nd-YAG laser) was “quadratic dependence” and the “visible emission on exposure to infrared beam” value ([2]; polyurethane film, 1.06 μm, several MW/cm^2) was “localized bright red emission”.

With `CCN(CCO)c1ccc(/C=C/c2cc[n+](CCO)cc2)cc1.[I-]` [ASPI, trans-4-[p-(N-ethyl-N-hydroxyethylamino)styryl]-N-hydroxyethylpyridinium iodide] the “concentration of highest lasing slope efficiency” value [3] was 820 µM, the “tunability FWHM” value [3] was “approximately 37 nm” and the “Lasing Tunability” value ([3]; 532 nm pump, 2 Hz, grating) was 599-635 nm. For the same compound, the “two-photon pumped cavity lasing” value ([1]; dye-doped sol gel glass) was “observed”.

In the case of “trans-4-[p-(-ethyl-N-hydroxyethylamino)styryl]-N-butansulfonpyridinum [dye4]”, the “two-photon pumped cavity lasing” value ([1]; dye-doped sol gel glass) is reported as “observed”.

For `CN(CCO)c1ccc(C=Cc2ccc(S(=O)(=O)CCCCCCO)cc2)cc1` [APSS], the one-pass two-photon absorption ([4]; 15 cm hollow fiber, pump ˜150 μJ) was roughly 25%, the central lasing wavelength ([4]; DMSO 0.012 M, 15 cm hollow fiber, 800 nm pump, 290 μJ) was roughly 565 nm and the “net conversion efficiency from absorbed pump energy to lasing output η” value ([4]; pump ˜150 μJ) was “≈ 2.3%”. The “pump threshold for lasing” value ([4]; solution filled hollow fiber) was 20 to 30 µJ, the “two-photon induced fluorescence at focal point” value ([5]; HEMA block, 798 nm Ti:Sapphire) was “strong two-photon induced green fluorescence” and the photobleaching during reading ([5]; faster scan, dose reduced by over two orders of magnitude) was “no noticeable photobleaching occurred”.

With `CN(C)c1ccc(/C=C/c2cc[n+](C)cc2)cc1.c1ccc([B-](c2ccccc2)(c2ccccc2)c2ccccc2)cc1` [dye2, trans-4-[p-(N,N-dimethylamino)styryl]-N-methylpyridinium tetraphenyborate] the “two-photon pumped cavity lasing” value ([1]; dye-doped sol gel glass) was “observed”.
